Results as given in article PMC4335056.
No constants are given. Whether binding was seen depends on the method and setting. Binding seen in cells or lysates may run through a third protein. A yes stands for co-enrichment or nearness to the bait. Other partners may have been found. Where a sequence is shown, tags or fusion partners need not be part of it.

B1: TFB2M (protein, UniProt Q9H5Q4 20-396)
chain: AGRFCILGSEAATRKHLPARNHCGLSDSSPQLWPEPDFRNPPRKASKASLDFKRYVTDRRLAETLAQIYLGKPSRPPHLLLECNPGPGILTQALLEAGAKVVALESDKTFIPHLESLGKNLDGKLRVIHCDFFKLDPRSGGVIKPPAMSSRGLFKNLGIEAVPWTADIPLKVVGMFPSRGEKRALWKLAYDLYSCTSIYKFGRIEVNMFIGEKEFQKLMADPGNPDLYHVLSVIWQLACEIKVLHMEPWSSFDIYTRKGPLENPKRRELLDQLQQKLYLIQMIPRQNLFTKNLTPMNYNIFFHLLKHCFGRRSATVIDHLRSLTPLDARDILMQIGKQEDEKVVNMHPQDFKTLFETIERSKDCAYKWLYDETLEDR
B2: MTERFD2 (protein, UniProt Q7Z6M4 43-381)
chain: LTTASNGGVIEELSCVRSNNYVQEPECRRNLVQCLLEKQGTPVVQGSLELERVMSSLLDMGFSNAHINELLSVRRGASLQQLLDIISEFILLGLNPEPVCVVLKKSPQLLKLPIMQMRKRSSYLQKLGLGEGKLKRVLYCCPEIFTMRQQDINDTVRLLKEKCLFTVQQVTKILHSCPSVLREDLGQLEYKFQYAYFRMGIKHPDIVKSEYLQYSLTKIKQRHIYLERLGRYQTPDKKGQTQIPNPLLKDILRVSEAEFLARTACTSVEEFQVFKKLLAREEEESESSTSDDKRASLDEDEDDDDEEDNDEDDNDEDDDDEDDDEAEDNDEDEDDDEEE
B3: DHX30 (protein, UniProt Q7L2E3 1-1194)
chain: MFSLDSFRKDRAQHRQRQCKLPPPRLPPMCVNPTPGGTISRASRDLLKEFPQPKNLLNSVIGRALGISHAKDKLVYVHTNGPKKKKVTLHIKWPKSVEVEGYGSKKIDAERQAAAAACQLFKGWGLLGPRNELFDAAKYRVLADRFGSPADSWWRPEPTMPPTSWRQLNPESIRPGGPGGLSRSLGREEEEDEEEELEEGTIDVTDFLSMTQQDSHAPLRDSRGSSFEMTDDDSAIRALTQFPLPKNLLAKVIQIATSSSTAKNLMQFHTVGTKTKLSTLTLLWPCPMTFVAKGRRKAEAENKAAALACKKLKSLGLVDRNNEPLTHAMYNLASLRELGETQRRPCTIQVPEPILRKIETFLNHYPVESSWIAPELRLQSDDILPLGKDSGPLSDPITGKPYVPLLEAEEVRLSQSLLELWRRRGPVWQEAPQLPVDPHRDTILNAIEQHPVVVISGDTGCGKTTRIPQLLLERYVTEGRGARCNVIITQPRRISAVSVAQRVSHELGPSLRRNVGFQVRLESKPPSRGGALLFCTVGILLRKLQSNPSLEGVSHVIVDEVHERDVNTDFLLILLKGLQRLNPALRLVLMSATGDNERFSRYFGGCPVIKVPGFMYPVKEHYLEDILAKLGKHQYLHRHRHHESEDECALDLDLVTDLVLHIDARGEPGGILCFLPGWQEIKGVQQRLQEALGMHESKYLILPVHSNIPMMDQKAIFQQPPVGVRKIVLATNIAETSITINDIVHVVDSGLHKEERYDLKTKVSCLETVWVSRANVIQRRGRAGRCQSGFAYHLFPRSRLEKMVPFQVPEILRTPLENLVLQAKIHMPEKTAVEFLSKAVDSPNIKAVDEAVILLQEIGVLDQREYLTTLGQRLAHISTDPRLAKAIVLAAIFRCLHPLLVVVSCLTRDPFSSSLQNRAEVDKVKALLSHDSGSDHLAFVRAVAGWEEVLRWQDRSSRENYLEENLLYAPSLRFIHGLIKQFSENIYEAFLVGKPSDCTLASAQCNEYSEEEELVKGVLMAGLYPNLIQVRQGKVTRQGKFKPNSVTYRTKSGNILLHKSTINREATRLRSRWLTYFMAVKSNGSVFVRDSSQVHPLAVLLLTDGDVHIRDDGRRATISLSDSDLLRLEGDSRTVRLLKELRRALGRMVERSLRSELAALPPSVQEEHGQLLALLAELLRGPCGSFDVRKTADD
B4: RNMTL1 (enzyme, UniProt Q9HC36 41-420)
chain: VFPSGEVVEQKRAPGKQPRKAPSEASAQEQREKQPLEESASRAPSTWEESGLRYDKAYPGDRRLSSVMTIVKSRPFREKQGKILLEGRRLISDALKAGAVPKMFFFSRLEYLKELPVDKLKGVSLIKVKFEDIKDWSDLVTPQGIMGIFAKPDHVKMTYPKTQLQHSLPLLLICDNLRDPGNLGTILRSAAGAGCSKVLLTKGCVDAWEPKVLRAGMGAHFRMPIINNLEWETVPNYLPPDTRVYVADNCGLYAQAEMSNKASDHGWVCDQRVMKFHKYEEEEDVETGASQDWLPHVEVQSYDSDWTEAPAAVVIGGETYGVSLESLQLAESTGGKRLLIPVVPGVDSLNSAMAASILLFEGKRQLRGRAEDLSRDRSYH
B5: Topoisomerase 3α (enzyme, UniProt Q13472 1-1001)
chain: MIFPVARYALRWLRRPEDRAFSRAAMEMALRGVRKVLCVAEKNDAAKGIADLLSNGRMRRREGLSKFNKIYEFDYHLYGQNVTMVMTSVSGHLLAHDFQMQFRKWQSCNPLVLFEAEIEKYCPENFVDIKKTLERETRQCQALVIWTDCDREGENIGFEIIHVCKAVKPNLQVLRARFSEITPHAVRTACENLTEPDQRVSDAVDVRQELDLRIGAAFTRFQTLRLQRIFPEVLAEQLISYGSCQFPTLGFVVERFKAIQAFVPEIFHRIKVTHDHKDGIVEFNWKRHRLFNHTACLVLYQLCVEDPMATVVEVRSKPKSKWRPQALDTVELEKLASRKLRINAKETMRIAEKLYTQGYISYPRTETNIFPRDLNLTVLVEQQTPDPRWGAFAQSILERGGPTPRNGNKSDQAHPPIHPTKYTNNLQGDEQRLYEFIVRHFLACCSQDAQGQETTVEIDIAQERFVAHGLMILARNYLDVYPYDHWSDKILPVYEQGSHFQPSTVEMVDGETSPPKLLTEADLIALMEKHGIGTDATHAEHIETIKARMYVGLTPDKRFLPGHLGMGLVEGYDSMGYEMSKPDLRAELEADLKLICDGKKDKFVVLRQQVQKYKQVFIEAVAKAKKLDEALAQYFGNGTELAQQEDIYPAMPEPIRKCPQCNKDMVLKTKKNGGFYLSCMGFPECRSAVWLPDSVLEASRDSSVCPVCQPHPVYRLKLKFKRGSLPPTMPLEFVCCIGGCDDTLREILDLRFSGGPPRASQPSGRLQANQSLNRMDNSQHPQPADSRQTGSSKALAQTLPPPTAAGESNSVTCNCGQEAVLLTVRKEGPNRGRQFFKCNGGSCNFFLWADSPNPGAGGPPALAYRPLGASLGCPPGPGIHLGGFGNPGDGSGSGTSCLCSQPSVTRTVQKDGPNKGRQFHTCAKPREQQCGFFQWVDENTAPGTSGAPSWTGDRGRTLESEARSKRPRASSSDMGSTAKKPRKCSLCHQPGHTRPFCPQNR
B6: LONP1 (enzyme, UniProt P36776 68-959)
chain: FWEASSRGGGAFSGGEDASEGGAEEGAGGAGGSAGAGEGPVITALTPMTIPDVFPHLPLIAITRNPVFPRFIKIIEVKNKKLVELLRRKVRLAQPYVGVFLKRDDSNESDVVESLDEIYHTGTFAQIHEMQDLGDKLRMIVMGHRRVHISRQLEVEPEEPEAENKHKPRRKSKRGKKEAEDELSARHPAELAMEPTPELPAEVLMVEVENVVHEDFQVTEEVKALTAEIVKTIRDIIALNPLYRESVLQMMQAGQRVVDNPIYLSDMGAALTGAESHELQDVLEETNIPKRLYKALSLLKKEFELSKLQQRLGREVEEKIKQTHRKYLLQEQLKIIKKELGLEKDDKDAIEEKFRERLKELVVPKHVMDVVDEELSKLGLLDNHSSEFNVTRNYLDWLTSIPWGKYSNENLDLARAQAVLEEDHYGMEDVKKRILEFIAVSQLRGSTQGKILCFYGPPGVGKTSIARSIARALNREYFRFSVGGMTDVAEIKGHRRTYVGAMPGKIIQCLKKTKTENPLILIDEVDKIGRGYQGDPSSALLELLDPEQNANFLDHYLDVPVDLSKVLFICTANVTDTIPEPLRDRMEMINVSGYVAQEKLAIAERYLVPQARALCGLDESKAKLSSDVLTLLIKQYCRESGVRNLQKQVEKVLRKSAYKIVSGEAESVEVTPENLQDFVGKPVFTVERMYDVTPPGVVMGLAWTAMGGSTLFVETSLRRPQDKDAKGDKDGSLEVTGQLGEVMKESARIAYTFARAFLMQHAPANDYLVTSHIHLHVPEGATPKDGPSAGCTIVTALLSLAMGRPVRQNLAMTGEVSLTGKILPVGGIKEKTIAAKRAGVTCIVLPAENKKDFYDLAAFITEGLEVHFVEHYREIFDIAFPDEQAEALAVER
B7: GRSF1 (protein, UniProt Q12849 118-480)
chain: SQESKTTYLEDLPPPPEYELAPSKLEEEVDDVFLIRAQGLPWSCTMEDVLNFFSDCRIRNGENGIHFLLNRDGKRRGDALIEMESEQDVQKALEKHRMYMGQRYVEVYEINNEDVDALMKSLQVKSSPVVNDGVVRLRGLPYSCNEKDIVDFFAGLNIVDITFVMDYRGRRKTGEAYVQFEEPEMANQALLKHREEIGNRYIEIFPSRRNEVRTHVGSYKGKKIASFPTAKYITEPEMVFEEHEVNEDIQPMTAFESEKEIELPKEVPEKLPEAADFGTTSSLHFVHMRGLPFQANAQDIINFFAPLKPVRITMEYSSSGKATGEADVHFETHEDAVAAMLKDRSHVHHRYIELFLNSCPKGK
B8: enoyl-coenzyme A (CoA) hydratase with AUUU RNA binding activity (AUH) (enzyme, UniProt Q13825 68-339)
chain: SSEMKTEDELRVRHLEEENRGIVVLGINRAYGKNSLSKNLIKMLSKAVDALKSDKKVRTIIIRSEVPGIFCAGADLKERAKMSSSEVGPFVSKIRAVINDIANLPVPTIAAIDGLALGGGLELALACDIRVAASSAKMGLVETKLAIIPGGGGTQRLPRAIGMSLAKELIFSARVLDGKEAKAVGLISHVLEQNQEGDAAYRKALDLAREFLPQGPVAMRVAKLAINQGMEVDLVTGLAIEEACYAQTIPTKDRLEGLLAFKEKRPPRYKGE
B9: MTERF2 (protein, UniProt Q49AM1 36-385)
chain: TTDKQSSKENTRTVEKLYKCSVDIRKIRRLKGWVLLEDETYVEEIANILQELGADETAVASILERCPEAIVCSPTAVNTQRKLWQLVCKNEEELIKLIEQFPESFFTIKDQENQKLNVQFFQELGLKNVVISRLLTAAPNVFHNPVEKNKQMVRILQESYLDVGGSEANMKVWLLKLLSQNPFILLNSPTAIKETLEFLQEQGFTSFEILQLLSKLKGFLFQLCPRSIQNSISFSKNAFKCTDHDLKQLVLKCPALLYYSVPVLEERMQGLLREGISIAQIRETPMVLELTPQIVQYRIRKLNSSGYRIKDGHLANLNGSKKEFEANFGKIQAKKVRPLFNPVAPLNVEE

These binders were tested against T1, TwinkleFLAG (mtDNA helicase Twinkle with a FLAG tag at its C-terminus) (UniProt Q96RR1) (assay: cross-linking + affinity purification with mass spectrometry; whole cell 1% formaldehyde cross-linking; method B (X-ChIP): RIPA lysis, sonication, RNAse A, DNAse I and Benzonase for 30 min at 37°C, FLAG resin, RIPA washes, 3xFLAG peptide elution; Q Exactive; enriched ≥2 fold by LFQ over TwinkleFLAG -XL and mtLucFLAG +XL; mtDNA-containing cells, levels also compared with ρ° cells).
T1 sequence: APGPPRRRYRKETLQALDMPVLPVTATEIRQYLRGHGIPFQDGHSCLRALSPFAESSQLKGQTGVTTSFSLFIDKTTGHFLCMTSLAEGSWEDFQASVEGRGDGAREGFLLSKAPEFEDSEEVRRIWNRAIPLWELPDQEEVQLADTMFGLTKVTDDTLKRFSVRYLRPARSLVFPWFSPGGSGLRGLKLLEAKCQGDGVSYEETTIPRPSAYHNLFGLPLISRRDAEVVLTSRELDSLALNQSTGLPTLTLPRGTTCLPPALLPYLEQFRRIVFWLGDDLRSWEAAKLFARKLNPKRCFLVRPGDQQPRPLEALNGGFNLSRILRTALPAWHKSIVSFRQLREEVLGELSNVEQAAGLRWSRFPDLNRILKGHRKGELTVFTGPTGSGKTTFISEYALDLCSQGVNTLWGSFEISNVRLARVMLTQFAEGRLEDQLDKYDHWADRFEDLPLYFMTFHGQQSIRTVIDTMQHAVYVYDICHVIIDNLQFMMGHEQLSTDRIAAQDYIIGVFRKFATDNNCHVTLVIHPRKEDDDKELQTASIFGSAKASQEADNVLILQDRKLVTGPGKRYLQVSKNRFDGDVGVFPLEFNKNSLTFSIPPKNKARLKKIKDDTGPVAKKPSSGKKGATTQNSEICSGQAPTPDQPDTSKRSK
In the case of B1, the binding is reported as “binds”. B2 was tested, and the binding was “binds”. For B3, the binding was “binds”. In the case of B4, the binding is reported as “binds”. For B5, the binding was “binds”. With B6 the binding was “binds”. In the case of B7, the binding is reported as “binds”. B8 was tested, and the binding was “binds”. With B9 the binding was “binds”.
